Laboratory results: PubChem BioAssay AID445 (National Center for Advancing Translational Sciences (NCATS), 2006)
This is one part of the list. These are further read-outs of the screen, such as a control signal, another cell line or another target. No call is given for them. Compounds called inactive in the main read-out are mostly missing here. Words in brackets tell the shape of the fitted curve; partial curves, single points and poor fits give uncertain potencies.

Assay: IkB Signaling
Settings: ABC-DLBCL IkBa-CBG/CBR dual luciferase ratio (green luciferase fused to IkBa over red control in OCI-Ly3 lymphoma cells), 4 h
Summary of the method: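 Luminescence ratio of IκBα-fused green versus native red beetle luciferase in OCI-Ly3 cells, 4 h post-doxycycline with compound; red signal alone, scaled from basal (0%) to zero light (-100%), flagged nonspecific or cytotoxic effects.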

[1] = measured here: control luc red channel unless noted
[2] = measured here: IkB-luc green channel
[3] = measured here: control luc red channel

Compound: CCCn1c(=O)c2[nH]c(-c3ccc(OCC(=O)NCCN)cc3)nc2n(CCC)c1=O
- AC50 [1]: 12.6 nM [falling, full curve, poor fit] [measured here: IkB-luc green channel]

Compound: COc1cc(OC)cc(C(=O)Nc2cc(-c3nc4cccnc4s3)ccc2C)c1
- AC50 [1]: 25.1 µM [falling, single point]

Compound: CCNc1nc(N)nc(Oc2ccc(C(=O)OC)cc2)n1
- AC50 [1]: 15.8 µM [rising, partial curve]

Compound: COc1ccc(NC(=O)C2CCN(S(=O)(=O)c3ccc4c(c3)CCCC(=O)N4)CC2)c(OC)c1
- AC50 [1]: 25.1 µM [falling, partial curve]

Compound: Cn1c(=O)c(=O)n(C)c2cc(S(=O)(=O)N3CCCC3C(=O)Nc3ccc(F)cc3)ccc21 (stereo not given)
- AC50 [1]: 10 µM [falling, partial curve]

Compound: CCOc1ccc(CNC(=O)Cn2ccc3cc(S(=O)(=O)N4CCCCC4)ccc32)cc1
- AC50 [1]: 12.6 µM [falling, partial curve]

Compound: CCOc1ccc(CNc2cc(C)nc3nc(-c4cccc(C)c4)nn23)cc1OC
- AC50 [1]: 12.6 µM [falling, partial curve]

Compound: Cc1cccc(NC(=O)c2ccc3oc(=O)c(S(=O)(=O)c4ccc(F)cc4)cc3c2)c1C
- AC50 [1]: 3.16 µM [falling, partial curve]

Compound: CCOc1ccccc1Oc1ncnc2c1oc1ccccc12
- AC50 [1]: 3.98 µM [rising, partial curve]

Compound: CCOc1ccccc1CNCc1c(C(=O)O)n(Cc2ccccc2)c2cc(OC)ccc12
- AC50 [1]: 15.8 µM [falling, single point]

Compound: Cc1ccc(S(=O)(=O)Nc2ccc(-c3ccc(N4CCCCCC4)nn3)cc2)c(C)c1
- AC50 [1]: 6.31 µM [falling, partial curve]

Compound: CCOC(=O)c1cc(C)n(CC2CCC(C(=O)Nc3cccc(C(C)=O)c3)CC2)c1C (stereo not given)
- AC50 [1]: 7.94 µM [falling, partial curve]

Compound: CCOc1ccccc1C1C(C(=O)Nc2ccccc2)=C(C)Nc2nc(-c3ccccc3)nn21 (stereo not given)
- AC50 [1]: 15.8 µM [falling, partial curve]

Compound: COc1ccccc1OCc1nc2ccccc2n1Cc1ccccc1
- AC50 [1]: 15.8 µM [falling, single point]

Compound: CC(C)NC(=O)CSc1cn(CC(=O)N2CCCCCC2)c2ccccc12
- AC50 [1]: 39.8 µM [falling, single point]

Compound: COc1ccc(CCCc2nnc(SCC(=O)Nc3cc(C)c(C)cc3Br)o2)cc1
- AC50 [1]: 5.01 µM [falling, partial curve]

Compound: COc1ccc(N2CCN(C(=O)c3cnc(N4CCOCC4)c4ccccc34)CC2)cc1
- AC50 [1]: 2 µM [rising, partial curve]

Compound: Cc1ccc(Cl)cc1NC(=O)CN1C(=O)c2ccccc2Sc2ncccc21
- AC50 [1]: 39.8 µM [falling, single point]

Compound: COC(=O)c1c(NC(=O)CSc2nnc(-c3cccnc3)n2Cc2ccco2)sc(C)c1C
- AC50 [1]: 10 µM [falling, partial curve]

Compound: COc1ccc(CCNC(=O)c2ccc3c(c2)nc2n3CCCCC2)cc1OC
- AC50 [1]: 0.126 µM [falling, full curve, poor fit]

Compound: Cc1cccc(N2CCN(Cc3nnc(-c4cccc(Br)c4)o3)CC2)c1C
- AC50 [1]: 15.8 µM [falling, partial curve]

Compound: Cc1csc(SCC(=O)Nc2ccccn2)n1
- AC50 [1]: 3.98 µM [falling, partial curve]

Compound: Cc1cc(/C=N/n2cnnc2)c(C)n1-c1ccc(OCc2ccc(F)cc2)cc1
- AC50 [1]: 7.94 µM [falling, partial curve]

Compound: COc1ccccc1NC(=O)Cn1c(=O)oc2cc(S(=O)(=O)NCc3ccccc3)ccc21
- AC50 [1]: 20 µM [falling, single point]

Compound: Clc1ccc2nc(-c3ccc(N4CCOCC4)cc3)c(Nc3ccccc3)n2c1
- AC50 [1]: 15.8 µM [falling, single point]

Compound: COc1ccc(N2CCN(CC(=O)Nc3nc4c(s3)CC(C)CC4)CC2)cc1 (stereo not given)
- AC50 [1]: 15.8 µM [falling, partial curve]

Compound: CCCc1ccc(OCc2ccc(C(=O)Nc3ccccc3C(=O)OC)o2)cc1
- AC50 [1]: 39.8 µM [falling, single point]

Compound: CCc1ccc(CNC(=O)c2cccc(-n3c(C)nc4cccnc43)c2)cc1
- AC50 [1]: 15.8 µM [falling, single point]

Compound: CCc1ccc(NC(=O)Cn2c(=O)n(-c3cccc(OC)c3)c(=O)c3c(C)c(C(=O)N(C)C)sc32)cc1
- AC50 [1]: 3.98 µM [rising, partial curve]

Compound: CCc1ccc(-c2nnn(Cc3nc4ccccc4s3)n2)cc1
- AC50 [1]: 39.8 µM [falling, single point]

Compound: CCCCN(CC)C(=O)c1ccc2c(c1)NC(=O)c1ccccc1S2
- AC50 [1]: 39.8 µM [falling, single point]

Compound: CSc1nnc(NC(=O)c2cc(=O)c3cc(C)c(C)cc3o2)s1
- AC50 [1]: 2.51 µM [rising, partial curve]

Compound: CC(C)Cc1nnc(NC(=O)CSc2nc(=O)cc(N)n2-c2ccccc2)s1
- AC50 [1]: 7.94 µM [falling, partial curve]

Compound: COc1ccc(OC)c([C@@H]2Nc3ccc(C(=O)O)cc3[C@@H]3C=CC[C@@H]32)c1
- AC50 [1]: 7.94 µM [falling, partial curve]

Compound: Cc1noc(/C=C/NCc2cccnc2)c1S(=O)(=O)N(C)CC(=O)N1CCc2ccccc21
- AC50 [1]: 7.94 µM [falling, partial curve]

Compound: COc1ccccc1N1CCN(C(=O)CSc2ncccc2-c2nc3ccccc3[nH]2)CC1
- AC50 [1]: 0.501 µM [falling, full curve]

Compound: CC(C)Cn1c(-c2ccccc2Cl)nc2ccccc21
- AC50 [1]: 10 µM [falling, partial curve]

Compound: CCC(c1nnnn1Cc1ccco1)N1CCN(c2cc(Cl)ccc2C)CC1 (stereo not given)
- AC50 [1]: 39.8 µM [falling, single point]

Compound: O=C1c2ccccc2-c2cc([N+](=O)[O-])c([N+](=O)[O-])cc21
- AC50 [2]: 3.98 µM [rising, partial curve]
- AC50 [3]: 3.98 µM [falling, single point]

Compound: CCOc1ccc(-c2c(C)nn3c(C)c(C(=O)NCCN(C)C)cnc23)cc1OCC
- AC50 [1]: 31.6 µM [falling, single point]

Compound: COc1ccccc1N=c1oc2cc(O)ccc2cc1C(=O)NCC1CCCO1 (stereo not given)
- AC50 [1]: 2 µM [falling, full curve, poor fit]

Compound: O=C(Cn1ncn2cccc2c1=O)NCc1cccc(Br)c1
- AC50 [1]: 39.8 µM [falling, single point]

Compound: COc1ccc(N(CC(C)C)S(=O)(=O)c2nnc(NC(=O)c3ccco3)s2)cc1
- AC50 [1]: 7.94 µM [falling, full curve]

Compound: COc1ccc(NC(=O)c2cc(-c3ccc(F)cc3)no2)cc1OC
- AC50 [1]: 20 µM [falling, single point]

Compound: Cc1cccc(Cn2c(N3CCCCC3C)nc3c2c(=O)[nH]c(=O)n3C)c1 (stereo not given)
- AC50 [1]: 20 µM [falling, single point]

Compound: CCn1c(C)c(C)c2cc(C(=O)N3CCN(c4ccccc4)CC3)ccc21
- AC50 [1]: 20 µM [falling, single point]

Compound: CN(C)c1ncnc2ccc(-c3cccc(NS(C)(=O)=O)c3)cc12
- AC50 [1]: 3.16 µM [rising, partial curve]

Compound: Cc1n[nH]c(C)c1S(=O)(=O)N1CCCC(C(=O)N2CCN(c3ccc(Cl)cc3)CC2)C1 (stereo not given)
- AC50 [1]: 15.8 µM [falling, partial curve]

Compound: CCCCc1nn2c(=O)cc(COC(=O)c3ccc4c(c3)OCO4)nc2s1
- AC50 [1]: 0.794 µM [falling, full curve]

Compound: O=C(CCCn1c(=O)[nH]c2ccc(Br)cc2c1=O)N1CCN(c2cccc(Cl)c2)CC1
- AC50 [1]: 20 µM [falling, partial curve]

Compound: COc1ccccc1C(=O)NCC(c1ccc(N(C)C)cc1)N1CCc2ccccc21 (stereo not given)
- AC50 [1]: 12.6 µM [falling, partial curve]

Compound: Cc1noc(C)c1C(=O)OCC(=O)c1cc(C)n(Cc2ccccc2Cl)c1C
- AC50 [1]: 15.8 µM [falling, partial curve]

Compound: CCOc1ccc(-c2cn3c(n2)sc2cc(C(=O)NCCCN4CCCCC4)ccc23)cc1
- AC50 [1]: 25.1 µM [falling, single point]

Compound: COc1cc(NC(=O)c2ccc(-c3nc(CSc4ccccc4)c(C)o3)cc2)cc(OC)c1
- AC50 [1]: 2.51 µM [falling, full curve]

Compound: CCSc1nnc(NC(=O)c2ccccc2)s1
- AC50 [1]: 2.51 µM [falling, full curve]

Compound: COc1ccc2nc(N(Cc3cccnc3)C(C)=O)sc2c1
- AC50 [1]: 15.8 µM [rising, partial curve]

Compound: O=C(Nc1sc2c(c1C(=O)O)CCC2)c1cccs1
- AC50 [1]: 3.98 µM [falling, partial curve]

Compound: COC(=O)c1cc2oc(C)cc2n1Cc1ccc(Br)cc1F
- AC50 [1]: 15.8 µM [falling, partial curve]

Compound: CCC(Oc1ccccc1-c1nnc(-c2ccccc2)o1)C(=O)Nc1ccc(C(C)=O)cc1 (stereo not given)
- AC50 [1]: 1 µM [rising, full curve]

Compound: COc1ccc(/C=N\n2nnc3ccccc32)cc1
- AC50 [1]: 3.98 µM [falling, full curve, poor fit]

Compound: CCc1ccc(-n2c(=O)c3cccnc3n2CC(=O)NCc2ccccc2)cc1
- AC50 [2]: 5.01 µM [rising, single point]
- AC50 [3]: 5.01 µM [rising, partial curve]

Compound: Oc1c(C(c2ccccn2)N2CCOCC2)ccc2cccnc12 (stereo not given)
- AC50 [1]: 15.8 µM [falling, partial curve]

Compound: O=C(C1CCCN(S(=O)(=O)c2cccc3nonc23)C1)N1CCC(Cc2ccccc2)CC1 (stereo not given)
- AC50 [1]: 15.8 µM [falling, partial curve]
